Assay results taken from patent publication US20230120666A1, “EXCIPIENTS PROVIDING STABILIZATION AND ENHANCED WATER SOLUBILIZATION AND THEIR USES” (priority 2020, published 2023).
Some of these results come from one statement about several compounds together. Some compounds share one range, which may span the group rather than tell each member.

Assay: Storage stability of 20 wt % SupraPlex formulations in sealed plastic vial at RT
Format: physicochemical
Conditions: loaded in 20 wt % Run #65 in DI water, pH 2.5±0.5, sealed poly(propylene) vial, after 18 months

SMILES | depletion from original concentration
COc1cc(/C=C/C(=O)CC(=O)/C=C/c2ccc(O)c(OC)c2)ccc1O [curcumin] | 18-21%
Oc1ccc(C=Cc2cc(O)cc(O)c2)cc1 [resveratrol] | 18-21%
